In CN113717287A:
These are yes or no findings as the source states them, for the method shown. Some entries that bind do so weakly or less than the wild type.

Protein sequences, listed by entry. Tags and fused reporters are not part of them. Residues count along the entry.
UniProt P01137, residues 279-390: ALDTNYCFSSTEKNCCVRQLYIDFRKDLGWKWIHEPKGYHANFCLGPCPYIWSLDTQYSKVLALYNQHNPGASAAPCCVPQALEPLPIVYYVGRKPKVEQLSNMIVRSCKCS

Molecular target: TGF-β1重组蛋白(义翘神州) (UniProt P01137)
Assay: ELISA, TGF-β coated 0.5 μg/mL, HRP goat anti-human detection; reference sample

M7824 (from UniProt P0DOX8 1-216) was tested, and the binding was “binds”.
